Publication PMC11753375

Target: endogenous USP5 in HL-1 CMs (mouse (endogenous in HL-1))
Assay: co-IP; endogenous proteins of HL-1 cardiomyocytes; Pierce Classic Magnetic IP/Co-IP Kit with anti-USP5 or IgG; immunoblot

B1: endogenous HDAC6 in HL-1 CMs (enzyme, UniProt Q9Z2V5 1-1149)
chain: MTSTGQDSSTRQRKSRHNPQSPLQESSATLKRGGKKCAVPHSSPNLAEVKKKGKMKKLSQPAEEDLVVGLQGLDLNPETRVPVGTGLVFDEQLNDFHCLWDDSFPESPERLHAIREQLILEGLLGRCVSFQARFAEKEELMLVHSLEYIDLMETTQYMNEGELRVLAETYDSVYLHPNSYSCACLATGSVLRLVDALMGAEIRNGMAVIRPPGHHAQHNLMDGYCMFNHLAVAARYAQKKHRIQRVLIVDWDVHHGQGTQFIFDQDPSVLYFSIHRYEHGRFWPHLKASNWSTIGFGQGQGYTINVPWNQTGMRDADYIAAFLHILLPVASEFQPQLVLVAAGFDALHGDPKGEMAATPAGFAHLTHLLMGLAGGKLILSLEGGYNLRALAKGVSASLHTLLGDPCPMLESCVVPCASAQTSIYCTLEALEPFWEVLERSVETQEEDEVEEAVLEEEEEEGGWEATALPMDTWPLLQNRTGLVYDEKMMSHCNLWDNHHPETPQRILRIMCHLEEVGLAARCLILPARPALDSELLTCHSAEYVEHLRTTEKMKTRDLHREGANFDSIYICPSTFACAKLATGAACRLVEAVLSGEVLNGIAVVRPPGHHAEPNAACGFCFFNSVAVAARHAQIIAGRALRILIVDWDVHHGNGTQHIFEDDPSVLYVSLHRYDRGTFFPMGDEGASSQVGRDAGIGFTVNVPWNGPRMGDADYLAAWHRLVLPIAYEFNPELVLISAGFDAAQGDPLGGCQVTPEGYAHLTHLLMGLAGGRIILILEGGYNLASISESMAACTHSLLGDPPPQLTLLRPPQSGALVSISEVIQVHRKYWRSLRLMKMEDKEECSSSRLVIKKLPPTASPVSAKEMTTPKGKVPEESVRKTIAALPGKESTLGQAKSKMAKAVLAQGQSSEQAAKGTTLDLATSKETVGGATTDLWASAAAPENFPNQTTSVEALGETEPTPPASHTNKQTTGASPLQGVTAQQSLQLGVLSTLELSREAEEAHDSEEGLLGEAAGGQDMNSLMLTQGFGDFNTQDVFYAVTPLSWCPHLMAVCPIPAAGLDVSQPCKTCGTVQENWVCLTCYQVYCSRYVNAHMVCHHEASEHPLVLSCVDLSTWCYVCQAYVHHEDLQDVKNAAHQNKFGEDMPHSH
- binding: binds

These are yes or no findings as the source states them, for the method shown. In cells and extracts the contact can be indirect. Binding calls can cover weak binding; strength is not graded here.
